The list shows a part of the results.

Chains of the proteins cited; added tags and fusions are not shown.
UniProt Q0JBA9, entry or part of it: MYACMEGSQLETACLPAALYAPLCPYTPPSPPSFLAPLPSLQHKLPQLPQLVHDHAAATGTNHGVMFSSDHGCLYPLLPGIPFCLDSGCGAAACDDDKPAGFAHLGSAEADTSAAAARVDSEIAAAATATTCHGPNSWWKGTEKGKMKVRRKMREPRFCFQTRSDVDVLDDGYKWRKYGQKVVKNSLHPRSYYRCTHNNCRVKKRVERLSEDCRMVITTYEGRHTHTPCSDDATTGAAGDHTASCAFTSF

The target of the assay is OsWRKY34 (Oryza sativa, UniProt Q0JBA9 1-250). Description: protein-binding microarray (RPBM); PBS, 2% BSA, 51.3 ng/ul salmon testes DNA, 50 uM zinc acetate, 200 nM TF, 25 C, 1 h; high values mean tight binding. The note with it: protein: recombinant; tags: N-terminal polyhistidine and DsRed monomer fusion (pET32a); label: CyDye5-dUTP incorporated in the synthesized complementary strand; 3' TTTTT single-stranded linker to array surface; dsDNA, one strand shown. In short, it runs like this: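 Per-feature fluorescence intensity (arbitrary units), read on an Axon 4000B scanner, is the binding signal. Transcription factors carrying an N-terminal polyhistidine tag and DsRed fusion were expressed in E. coli BL21-CodonPlus and purified on Ni–NTA. A custom Agilent array, made double-stranded by primer extension with Cy5-dUTP and blocked with 2% BSA, was incubated with 200 nM protein in PBS, 2% BSA, salmon testes DNA and 50 µM zinc acetate at 25 °C for 1 h and then washed.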
Consider “GCTGTCCATGCTGACCCATGTTGCTCTGTACAAGCTTTATCGGAGTCACCTAGTGCAG”, for which the binding signal was 8790 fluorescence intensity (a.u.).

Turning to “CTACTCAATGTAGTCATCCCGTATTAACCTTTTTCTGCAACGGAGTCACCTAGTGCAG”, the binding signal was 8300 fluorescence intensity (a.u.).

“CGGCTTCCTGACCTTGCCGCCAGCCCGCCACAGTTGCCATCGGAGTCACCTAGTGCAG”: the binding signal was 9980 fluorescence intensity (a.u.).

Turning to “TTACTGATGTCATCGTTCCAGGCCGTTGGTCCCGCTGCCTCGGAGTCACCTAGTGCAG”, the binding signal is 8330 fluorescence intensity (a.u.).

As for “CTATATATATCATGCGTATGCCTTTTGCATTCCAAATCATCGGAGTCACCTAGTGCAG”, the binding signal is 9330 fluorescence intensity (a.u.).

With “CCTTTTTTGTTTGTTATGTTTTTTCCACGGTTTTTTTTCGCGGAGTCACCTAGTGCAG”, the binding signal was 14100 fluorescence intensity (a.u.).

Consider “AATCATGTACTTTGAGGTCCTTACGTGATATGTTTTTCTTCGGAGTCACCTAGTGCAG”, for which the binding signal was 10500 fluorescence intensity (a.u.).

On to “CATTTCATCTTTTTCTTTATTCGAATGCATGTATCCTAGACGGAGTCACCTAGTGCAG”, for which the binding signal was 9080 fluorescence intensity (a.u.).

As for “ACACTTACTCCTATCAAAGCAAGACCCTCACTTTGGCATCCGGAGTCACCTAGTGCAG”, the binding signal was 9270 fluorescence intensity (a.u.).

In the case of “AGCATTCATATCACATCGGTTTTCGTACTTTTAGCCGGATCGGAGTCACCTAGTGCAG”, the binding signal was 9460 fluorescence intensity (a.u.).

With “ACCATCATTTTCATTGTTTGTGTTACTTTCCGGCGTCCTACGGAGTCACCTAGTGCAG”, the binding signal was 9900 fluorescence intensity (a.u.).

“ATTTGAATATACCTTTTTTTTCTTAAGTTCAGTTCAATTCCGGAGTCACCTAGTGCAG”: the binding signal is 8080 fluorescence intensity (a.u.).

“AAGTCCATAGCCCATTTTTATCGATCTGATTTCTAAAAAACGGAGTCACCTAGTGCAG”: the binding signal was 9950 fluorescence intensity (a.u.).

With “GACAAGGCCCCTCGCACCCCACAGGCCCATCCCATCCCACCGGAGTCACCTAGTGCAG”, the binding signal is 8890 fluorescence intensity (a.u.).

As to “CGCCTGTAGTTTCCTACTTTCTCATGTCAATGTGTGCATGCGGAGTCACCTAGTGCAG”, the binding signal is 10700 fluorescence intensity (a.u.).

Regarding “CTCCTCTCTCGCTCACTCCTCGCTCCTCTGTACTGTATCCCGGAGTCACCTAGTGCAG”, the binding signal was 12700 fluorescence intensity (a.u.).

For the sequence “GGTTTCCATTTCGGTACATCGATCTTTTTACAATTAGATCCGGAGTCACCTAGTGCAG”, the binding signal was 9730 fluorescence intensity (a.u.).

For “GATGTACTCCTCCGGCCACCACCAATCAAACCAGTCCACTCGGAGTCACCTAGTGCAG”, the binding signal is 8320 fluorescence intensity (a.u.).

In the case of “GCCCACCGCAATTCATTCCTCATCCGTCTCGGTCTTGGAGCGGAGTCACCTAGTGCAG”, the binding signal is 9230 fluorescence intensity (a.u.).

Regarding “CGCTATGTTTTGAGTGTGTATGTGGGTTGGAGGGAGGAGGCGGAGTCACCTAGTGCAG”, the binding signal is 8330 fluorescence intensity (a.u.).

For the sequence “GCAACGTGATCTCAGTTATTGCATGCTCTCCGTGCCGTATCGGAGTCACCTAGTGCAG”, the binding signal was 8160 fluorescence intensity (a.u.).

“GTGTGGTTTGGTTTGGGAGGAGTTCGGTTTTTTCAGAATGCGGAGTCACCTAGTGCAG”: the binding signal was 12200 fluorescence intensity (a.u.).

As for “ATTTTCTAAACCTCCTTATTCTCTCTCTAATTTTCTATTTCGGAGTCACCTAGTGCAG”, the binding signal is 8450 fluorescence intensity (a.u.).

Consider “AACCAATTCCATAACCCCTAGGCTATTTTGCGAGACAAATCGGAGTCACCTAGTGCAG”, for which the binding signal was 9340 fluorescence intensity (a.u.).

As for “CCTATGCCCCAGTATCAGTACACATTCCTACCTCAATGATCGGAGTCACCTAGTGCAG”, the binding signal was 8740 fluorescence intensity (a.u.).

For the sequence “CTGCCACCACCGTCGCCGCGGCTTACACGTCTTCTTCGCCCGGAGTCACCTAGTGCAG”, the binding signal is 9280 fluorescence intensity (a.u.).

With “ATTTCGTTCTAGCTCTGTCCCTGTCCCTGGGCCCTGTATACGGAGTCACCTAGTGCAG”, the binding signal was 8700 fluorescence intensity (a.u.).

“CATGTTCTGAAATCTGAAGGTCTTGTGTGTTTGTTCCGATCGGAGTCACCTAGTGCAG”: the binding signal was 8760 fluorescence intensity (a.u.).

“ATCCGCTTACCACACTAAGTGCATGCACTCACAAATTTACCGGAGTCACCTAGTGCAG”: the binding signal is 8500 fluorescence intensity (a.u.).

“CTCCATTATGGGCTTCTGTGGGCCTACTCCTCGATTCGTTCGGAGTCACCTAGTGCAG”: the binding signal is 8500 fluorescence intensity (a.u.).

For “CTGCTTTCTCGATTAGACCGTGTGTTTAGTGTGAAATTTTCGGAGTCACCTAGTGCAG”, the binding signal was 8360 fluorescence intensity (a.u.).

For “ATTTTGATTTTTGCAATCACCACCCCGCGCGGCGCAAACACGGAGTCACCTAGTGCAG”, the binding signal was 8880 fluorescence intensity (a.u.).

For “GGGCGACAAGCACGCGTATACCCATCTATCATCCCGCTCCCGGAGTCACCTAGTGCAG”, the binding signal is 8390 fluorescence intensity (a.u.).

With “ATCCAGCTCCGGCCTGTCTGTCCTGCTTGTATCCAAGTGTCGGAGTCACCTAGTGCAG”, the binding signal was 9540 fluorescence intensity (a.u.).

On to “CCGCTCGCCGCCGGGACCCCGCACCGCAAATCGTCGTCCTCGGAGTCACCTAGTGCAG”, for which the binding signal is 8480 fluorescence intensity (a.u.).

On to “GGGCTTGTTCAGATTGATGACATTTTCAACCATACCATATCGGAGTCACCTAGTGCAG”, for which the binding signal was 9210 fluorescence intensity (a.u.).

Take “CGCGAGACAATCTAGCCGTTCTTCATTTTTTTCGCTTTCCCGGAGTCACCTAGTGCAG”: the binding signal is 9240 fluorescence intensity (a.u.).

For “GGCTTTCTCGTTTTAGTTGTCCATACTTCCTATTTCTATACGGAGTCACCTAGTGCAG”, the binding signal is 13800 fluorescence intensity (a.u.).

For the sequence “CTTTTTTGTATGCTGGTGTTTTTGGCTGGCCCTAAGTTTTCGGAGTCACCTAGTGCAG”, the binding signal is 13400 fluorescence intensity (a.u.).

With “TTCTATTTCACTAATTGTGTGTGTTCATTGCTAGTTGCATCGGAGTCACCTAGTGCAG”, the binding signal is 8850 fluorescence intensity (a.u.).

On to “ACATTCCAAAATTTGACCAAATTTGTTCACTCGTTGACTGCGGAGTCACCTAGTGCAG”, for which the binding signal is 13100 fluorescence intensity (a.u.).

On to “ACGCTCCACTCGCCTCGCTGCAGCAACCTCCTTCGCTCGACGGAGTCACCTAGTGCAG”, for which the binding signal is 9520 fluorescence intensity (a.u.).

The values above are taken from publication PMC7819943, “Rice protein-binding microarrays: a tool to detect cis-acting elements near promoter regions in rice”.
